These are yes or no findings as the source states them, for the method shown. Binding seen in cells or lysates may run through a third protein. Some results given as binding are weak or reduced against the parent protein; the word gives no strength. Sequences can lack the tags named with a protein.

Amino acid sequences for entries named in this document (tags omitted).
UniProt P63330: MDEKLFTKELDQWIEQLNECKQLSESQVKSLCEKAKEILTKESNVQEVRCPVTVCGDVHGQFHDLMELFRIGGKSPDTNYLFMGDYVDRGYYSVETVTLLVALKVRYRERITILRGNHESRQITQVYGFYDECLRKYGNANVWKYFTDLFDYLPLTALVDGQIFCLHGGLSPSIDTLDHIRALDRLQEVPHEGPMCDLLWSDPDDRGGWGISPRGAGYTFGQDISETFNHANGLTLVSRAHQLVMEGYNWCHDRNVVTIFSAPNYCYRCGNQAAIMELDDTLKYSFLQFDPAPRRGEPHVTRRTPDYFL
UniProt P62715: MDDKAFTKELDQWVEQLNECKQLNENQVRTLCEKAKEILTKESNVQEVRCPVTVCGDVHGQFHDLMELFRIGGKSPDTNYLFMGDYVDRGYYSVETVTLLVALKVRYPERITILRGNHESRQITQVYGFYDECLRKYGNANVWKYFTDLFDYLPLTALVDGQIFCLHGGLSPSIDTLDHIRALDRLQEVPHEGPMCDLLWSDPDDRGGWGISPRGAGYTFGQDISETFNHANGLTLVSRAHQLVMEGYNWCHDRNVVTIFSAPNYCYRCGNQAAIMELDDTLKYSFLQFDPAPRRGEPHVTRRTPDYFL

In this assay the target is T1, NLR family pyrin domain containing 4 (mouse NLRP4, Nlrp4e), 3xFLAG-tagged (mouse) (UniProt Q66X19).
T1 sequence: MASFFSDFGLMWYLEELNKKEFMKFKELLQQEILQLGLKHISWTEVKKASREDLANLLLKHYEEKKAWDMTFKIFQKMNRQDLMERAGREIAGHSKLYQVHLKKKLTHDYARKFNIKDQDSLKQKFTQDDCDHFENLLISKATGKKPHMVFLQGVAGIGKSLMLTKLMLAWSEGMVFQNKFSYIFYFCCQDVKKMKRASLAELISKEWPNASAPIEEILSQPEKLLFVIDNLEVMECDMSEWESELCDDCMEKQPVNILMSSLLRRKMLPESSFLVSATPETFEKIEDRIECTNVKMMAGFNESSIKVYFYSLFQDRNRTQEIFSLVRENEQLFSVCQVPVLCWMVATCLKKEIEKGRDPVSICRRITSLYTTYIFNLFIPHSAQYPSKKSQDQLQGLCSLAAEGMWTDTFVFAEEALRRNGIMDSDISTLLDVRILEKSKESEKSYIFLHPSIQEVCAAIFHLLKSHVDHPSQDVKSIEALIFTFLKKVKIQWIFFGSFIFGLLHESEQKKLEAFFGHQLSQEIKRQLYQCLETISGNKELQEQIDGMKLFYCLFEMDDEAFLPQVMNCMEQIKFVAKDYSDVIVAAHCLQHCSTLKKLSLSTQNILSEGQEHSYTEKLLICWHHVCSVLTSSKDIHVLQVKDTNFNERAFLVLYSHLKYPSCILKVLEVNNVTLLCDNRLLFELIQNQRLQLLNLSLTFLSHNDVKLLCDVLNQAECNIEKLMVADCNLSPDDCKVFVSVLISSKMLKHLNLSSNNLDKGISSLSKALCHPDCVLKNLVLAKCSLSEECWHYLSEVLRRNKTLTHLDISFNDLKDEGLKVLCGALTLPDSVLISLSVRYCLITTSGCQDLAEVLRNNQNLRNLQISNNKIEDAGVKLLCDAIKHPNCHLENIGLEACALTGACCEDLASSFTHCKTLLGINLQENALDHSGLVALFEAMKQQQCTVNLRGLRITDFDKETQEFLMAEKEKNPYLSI
Put plainly: co-IP; flag antibody (or PP2A and p-PP2A, per the legend) incubated with lysate of LLC NLRP4-NC and NLRP4-OE cells overnight at 4 °C, Protein A/G magnetic beads, RIPA buffer, immunoblot. For orientation: In western blotting, separated proteins are transferred to a membrane and probed.

As for “PPP2CA, catalytic subunit of PP2A (from UniProt P63330 1-309) (enzyme)”, the binding result was “binds”. To “PPP2CB, beta isoform of the catalytic subunit of PP2A (from UniProt P62715 1-309) (enzyme)” belongs “binds”.

These data come from article PMC11909883.
